Article PMC9107465
Results are given in words; binding and its absence hold for the method and conditions named. Binding seen in cells or lysates may run through a third protein. Some entries that bind do so weakly or less than the wild type.

By UniProt entry, the sequences of proteins in these tests, tags left out.
UniProt Q9Y6M1: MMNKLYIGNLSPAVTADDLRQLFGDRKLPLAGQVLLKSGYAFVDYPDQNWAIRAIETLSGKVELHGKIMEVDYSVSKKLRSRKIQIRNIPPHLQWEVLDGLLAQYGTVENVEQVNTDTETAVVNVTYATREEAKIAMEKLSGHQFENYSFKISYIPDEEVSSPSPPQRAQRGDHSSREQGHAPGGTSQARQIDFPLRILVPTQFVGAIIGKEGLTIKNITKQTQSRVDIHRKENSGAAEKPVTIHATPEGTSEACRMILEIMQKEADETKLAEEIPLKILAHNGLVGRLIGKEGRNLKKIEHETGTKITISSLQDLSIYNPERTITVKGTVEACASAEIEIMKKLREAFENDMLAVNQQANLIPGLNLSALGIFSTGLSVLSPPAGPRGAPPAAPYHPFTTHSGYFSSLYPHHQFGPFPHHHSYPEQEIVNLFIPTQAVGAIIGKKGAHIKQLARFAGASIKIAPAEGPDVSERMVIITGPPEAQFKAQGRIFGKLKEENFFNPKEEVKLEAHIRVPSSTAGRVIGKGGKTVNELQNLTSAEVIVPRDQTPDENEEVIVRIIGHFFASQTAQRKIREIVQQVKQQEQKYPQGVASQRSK
UniProt Q15717: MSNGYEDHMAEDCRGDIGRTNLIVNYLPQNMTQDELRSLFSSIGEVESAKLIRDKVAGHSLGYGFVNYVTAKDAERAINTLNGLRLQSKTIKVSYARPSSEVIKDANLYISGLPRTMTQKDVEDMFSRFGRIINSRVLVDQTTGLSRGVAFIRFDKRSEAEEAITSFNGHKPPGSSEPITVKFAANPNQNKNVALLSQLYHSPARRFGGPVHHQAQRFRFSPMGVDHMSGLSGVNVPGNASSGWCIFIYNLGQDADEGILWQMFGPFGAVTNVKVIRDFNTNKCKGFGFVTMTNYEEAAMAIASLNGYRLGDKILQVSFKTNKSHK

How the values were obtained:
IGF2BP2 = IGF2BP2 (UniProt Q9Y6M1); assay: co-IP; cells harvested 48 h post-transfection, NP40 lysis buffer with protease inhibitor; indicated primary antibody or control IgG 1 h at 4 °C, protein A/G agarose beads overnight at 4 °C; western blot; both directions
HuR = HuR (UniProt Q15717); assay: as above

| Substance | binding (IGF2BP2) | binding (HuR) |
| --- | --- | --- |
| HuR (from UniProt Q15717 1-326) | binds |  |
| IGF2BP2 (from UniProt Q9Y6M1 1-599) |  | binds |
